For experiment [1], the target named is CDK1-HA (overexpressed) (human) (UniProt P06493). Nature of the experiment: cross-linking + co-IP.
The target is the same in experiment [2]. Nature of the experiment: co-IP.
Experiment [3] addresses HCMV pUL50, tagged version (Figure 1) (HCMV) (UniProt P16791). Nature of the experiment: cross-linking + co-IP.
Experiment [4] shares this target. Nature of the experiment: cross-linking.

The chains behind the UniProt entries cited, without tags or fusion partners.
UniProt P06493: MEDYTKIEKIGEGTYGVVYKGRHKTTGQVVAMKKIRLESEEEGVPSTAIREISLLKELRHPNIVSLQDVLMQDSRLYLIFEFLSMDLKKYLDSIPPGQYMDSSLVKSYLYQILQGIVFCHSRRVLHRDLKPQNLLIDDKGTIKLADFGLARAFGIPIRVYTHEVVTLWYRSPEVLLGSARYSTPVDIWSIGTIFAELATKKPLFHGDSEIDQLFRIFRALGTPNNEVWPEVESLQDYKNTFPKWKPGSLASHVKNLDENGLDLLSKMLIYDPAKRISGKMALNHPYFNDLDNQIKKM
UniProt P16791: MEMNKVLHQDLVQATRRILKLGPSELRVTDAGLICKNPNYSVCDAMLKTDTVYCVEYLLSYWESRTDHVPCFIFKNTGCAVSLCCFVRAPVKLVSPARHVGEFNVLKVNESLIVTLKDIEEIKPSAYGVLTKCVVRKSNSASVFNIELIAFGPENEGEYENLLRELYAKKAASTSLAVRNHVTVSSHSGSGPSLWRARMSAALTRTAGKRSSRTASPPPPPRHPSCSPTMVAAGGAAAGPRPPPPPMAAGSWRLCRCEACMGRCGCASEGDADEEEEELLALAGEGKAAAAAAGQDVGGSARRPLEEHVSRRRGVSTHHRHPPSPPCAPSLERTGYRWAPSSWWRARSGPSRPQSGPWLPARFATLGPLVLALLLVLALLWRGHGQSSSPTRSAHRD
UniProt P16794: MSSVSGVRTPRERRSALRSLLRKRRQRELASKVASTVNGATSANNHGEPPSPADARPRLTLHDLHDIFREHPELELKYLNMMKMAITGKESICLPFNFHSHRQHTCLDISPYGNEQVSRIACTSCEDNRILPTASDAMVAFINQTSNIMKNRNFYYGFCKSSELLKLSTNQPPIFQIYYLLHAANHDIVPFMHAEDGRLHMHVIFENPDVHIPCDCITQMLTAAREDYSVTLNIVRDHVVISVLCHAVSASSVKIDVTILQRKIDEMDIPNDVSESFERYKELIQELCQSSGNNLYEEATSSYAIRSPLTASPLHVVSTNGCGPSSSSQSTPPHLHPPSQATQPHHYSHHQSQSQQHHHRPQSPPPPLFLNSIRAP

Results are given in words; binding and its absence hold for the method and conditions named. In cells and extracts the contact can be indirect. Some entries that bind do so weakly or less than the wild type.

Here are results for three substances from article PMC9146606.

As for pUL53-His (from UniProt P16794 1-376), the binding result in experiment [1] and in experiment [2] was “binds” throughout.

Regarding “HCMV pUL53, tagged version (Figure 1) (from UniProt P16794 1-376)”, the binding result in experiment [3] and in experiment [4] was “binds” each time.

As to pUL50-V5 (from UniProt P16791 1-397), in experiment [1], the binding entry is reported as “binds”.
